Assay [1] concerns the target T1, CESA1, full length, split-YFP (BiFC) fusion (Arabidopsis thaliana) (UniProt O48946).
T1 sequence: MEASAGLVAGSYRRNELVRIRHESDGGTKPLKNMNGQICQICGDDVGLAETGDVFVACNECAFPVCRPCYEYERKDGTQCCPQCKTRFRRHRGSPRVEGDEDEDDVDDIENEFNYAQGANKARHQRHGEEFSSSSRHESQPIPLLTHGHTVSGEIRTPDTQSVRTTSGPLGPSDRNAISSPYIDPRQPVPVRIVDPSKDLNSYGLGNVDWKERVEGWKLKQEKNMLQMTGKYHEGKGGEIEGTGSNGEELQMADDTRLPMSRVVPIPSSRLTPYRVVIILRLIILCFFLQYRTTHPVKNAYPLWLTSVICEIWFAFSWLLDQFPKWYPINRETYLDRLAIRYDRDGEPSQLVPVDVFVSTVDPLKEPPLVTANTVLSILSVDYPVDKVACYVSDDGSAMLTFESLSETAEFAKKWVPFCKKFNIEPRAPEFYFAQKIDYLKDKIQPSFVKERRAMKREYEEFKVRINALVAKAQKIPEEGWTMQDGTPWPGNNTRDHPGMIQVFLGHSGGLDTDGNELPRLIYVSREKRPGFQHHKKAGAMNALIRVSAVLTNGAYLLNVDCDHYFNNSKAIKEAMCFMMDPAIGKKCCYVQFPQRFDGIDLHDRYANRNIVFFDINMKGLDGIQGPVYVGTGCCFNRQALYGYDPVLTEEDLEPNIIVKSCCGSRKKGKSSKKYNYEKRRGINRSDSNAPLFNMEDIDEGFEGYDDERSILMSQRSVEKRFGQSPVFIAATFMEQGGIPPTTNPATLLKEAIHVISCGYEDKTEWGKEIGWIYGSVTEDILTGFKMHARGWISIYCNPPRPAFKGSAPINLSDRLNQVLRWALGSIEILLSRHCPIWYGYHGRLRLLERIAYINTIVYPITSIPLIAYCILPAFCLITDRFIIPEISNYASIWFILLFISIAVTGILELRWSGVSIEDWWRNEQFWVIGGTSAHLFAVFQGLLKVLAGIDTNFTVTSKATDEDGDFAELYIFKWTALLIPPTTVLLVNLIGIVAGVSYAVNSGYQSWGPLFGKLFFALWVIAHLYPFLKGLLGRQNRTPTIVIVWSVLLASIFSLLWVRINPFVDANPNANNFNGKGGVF
In words: split reporter; BiFC: Y/N and Y/C fragments of YFP each linked to the N-terminus of the proteins, transiently expressed in leaves of 3-week-old N. benthamiana; YFP fluorescence by confocal microscopy 3 days after infiltration.

The target of assay [2] is T2, CESA7, full length, split-YFP (BiFC) fusion (Arabidopsis thaliana) (UniProt Q9SWW6).
T2 sequence: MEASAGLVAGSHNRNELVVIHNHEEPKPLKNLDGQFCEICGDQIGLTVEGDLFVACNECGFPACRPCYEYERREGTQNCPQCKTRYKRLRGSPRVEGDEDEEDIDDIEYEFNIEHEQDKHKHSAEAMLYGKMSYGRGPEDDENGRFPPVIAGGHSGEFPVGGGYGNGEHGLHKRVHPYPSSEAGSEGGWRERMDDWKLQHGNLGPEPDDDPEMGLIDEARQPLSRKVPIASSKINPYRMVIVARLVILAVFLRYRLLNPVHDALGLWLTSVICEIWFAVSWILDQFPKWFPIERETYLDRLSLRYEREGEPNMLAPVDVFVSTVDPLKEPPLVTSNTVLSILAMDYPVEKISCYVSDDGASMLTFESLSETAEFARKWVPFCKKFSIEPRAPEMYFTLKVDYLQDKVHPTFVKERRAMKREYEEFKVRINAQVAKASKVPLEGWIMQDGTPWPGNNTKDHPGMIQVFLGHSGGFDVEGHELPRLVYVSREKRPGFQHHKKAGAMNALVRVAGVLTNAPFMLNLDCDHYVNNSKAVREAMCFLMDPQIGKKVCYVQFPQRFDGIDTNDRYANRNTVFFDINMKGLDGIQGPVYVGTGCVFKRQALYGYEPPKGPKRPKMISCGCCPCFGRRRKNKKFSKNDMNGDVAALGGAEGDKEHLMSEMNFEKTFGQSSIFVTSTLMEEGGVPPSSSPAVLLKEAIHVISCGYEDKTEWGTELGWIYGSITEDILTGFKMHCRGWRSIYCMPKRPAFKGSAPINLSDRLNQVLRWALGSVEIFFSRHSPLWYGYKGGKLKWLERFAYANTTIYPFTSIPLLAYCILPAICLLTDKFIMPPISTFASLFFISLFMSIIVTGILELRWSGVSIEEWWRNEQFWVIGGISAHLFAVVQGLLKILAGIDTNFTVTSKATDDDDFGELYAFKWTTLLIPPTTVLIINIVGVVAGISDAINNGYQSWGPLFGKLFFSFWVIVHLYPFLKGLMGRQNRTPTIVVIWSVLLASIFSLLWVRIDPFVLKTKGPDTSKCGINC
Described as above.

These are yes or no findings as the source states them, for the method shown. In cells and extracts the contact can be indirect. Some entries that bind do so weakly or less than the wild type. Tags and fused reporters may be left off the sequences shown.

B1: KOR1N (AA 1 to 94), split-YFP (BiFC) fusion (domain or fragment, UniProt Q38890 1-94)
chain: MYGRDPWGGPLEINTADSATDDDRSRNLNDLDRAALSRPLDETQQSWLLGPTEQKKKKYVDLGCIIVSRKIFVWTVGTLVAAALLAGFITLIVK
Take B1: the values for the binding entry in assay [1] and in assay [2] were “binds” and “no binding”, respectively.

B2: KOR1C (AA 70 to 621), split-YFP (BiFC) fusion (domain or fragment, UniProt Q38890 70-621)
chain: KIFVWTVGTLVAAALLAGFITLIVKTVPRHHPKTPPPDNYTIALHKALKFFNAQKSGKLPKHNNVSWRGNSGLQDGKGETGSFYKDLVGGYYDAGDAIKFNFPMAYAMTMLSWSVIEYSAKYEAAGELTHVKELIKWGTDYFLKTFNSTADSIDDLVSQVGSGNTDDGNTDPNDHYCWMRPEDMDYKRPVTTCNGGCSDLAAEMAAALASASIVFKDNKEYSKKLVHGAKVVYQFGRTRRGRYSAGTAESSKFYNSSMYWDEFIWGGAWMYYATGNVTYLNLITQPTMAKHAGAFWGGPYYGVFSWDNKLAGAQLLLSRLRLFLSPGYPYEEILRTFHNQTSIVMCSYLPIFNKFNRTNGGLIELNHGAPQPLQYSVNAAFLATLYSDYLDAADTPGWYCGPNFYSTSVLRDFARSQIDYILGKNPRKMSYVVGFGTKYPRHVHHRGASIPKNKVKYNCKGGWKWRDSKKPNPNTIEGAMVAGPDKRDGYRDVRMNYNYTEPTLAGNAGLVAALVALSGEEEATGKIDKNTIFSAVPPLFPTPPPPPAPWKP
On to B2, for which the binding result in assay [1] is “binds”; in assay [2], “no binding”.

Regarding KIFVWTVGTLVAAALLAGFITLIVK (domain or fragment, UniProt Q38890 70-94) [KOR1TMD (AA 70 to 94), split-YFP (BiFC) fusion], the binding result is on record as “binds” in assay [1] and “no binding” in assay [2].

B3: KORRIGAN1 (KOR1), full length, split-YFP (BiFC) fusion (protein, UniProt Q38890 1-621)
chain: MYGRDPWGGPLEINTADSATDDDRSRNLNDLDRAALSRPLDETQQSWLLGPTEQKKKKYVDLGCIIVSRKIFVWTVGTLVAAALLAGFITLIVKTVPRHHPKTPPPDNYTIALHKALKFFNAQKSGKLPKHNNVSWRGNSGLQDGKGETGSFYKDLVGGYYDAGDAIKFNFPMAYAMTMLSWSVIEYSAKYEAAGELTHVKELIKWGTDYFLKTFNSTADSIDDLVSQVGSGNTDDGNTDPNDHYCWMRPEDMDYKRPVTTCNGGCSDLAAEMAAALASASIVFKDNKEYSKKLVHGAKVVYQFGRTRRGRYSAGTAESSKFYNSSMYWDEFIWGGAWMYYATGNVTYLNLITQPTMAKHAGAFWGGPYYGVFSWDNKLAGAQLLLSRLRLFLSPGYPYEEILRTFHNQTSIVMCSYLPIFNKFNRTNGGLIELNHGAPQPLQYSVNAAFLATLYSDYLDAADTPGWYCGPNFYSTSVLRDFARSQIDYILGKNPRKMSYVVGFGTKYPRHVHHRGASIPKNKVKYNCKGGWKWRDSKKPNPNTIEGAMVAGPDKRDGYRDVRMNYNYTEPTLAGNAGLVAALVALSGEEEATGKIDKNTIFSAVPPLFPTPPPPPAPWKP
As to B3, the binding entry was “binds” in assay [1] and “no binding” in assay [2].

Source of the values: PMC4226561.
